PubChem BioAssay AID1224826 | NIAID, 2016
The deposit covers about 17,000 reagents; below is a part drawn at random. Of all reagents, about 1,110 (6.6%) got an active call. 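Active means lowered or raised reporter signal; replicate intensities are raw and not normalised per plate.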 Unmarked entries are inactive. Not all columns of the deposit are shown. No sequences are given here.

Assay: 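Knock-downs that raise or lower Tnf reporter signal after endotoxin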 (primary screen)
Cells: RAW264.7 G9 macrophages from mouse bearing reporters for p65 (GFP) and the Tnf promoter (mCherry)
Knock-down reagent: siRNA pool against mouse genes, 100 nM
Timing: 16 h of LPS stimulation, after 2 days of siRNA transfection
Treatment: bacterial lipopolysaccharide (Salmonella minnesota R595), 10 ng/ml
Detection: 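Nuclear mCherry signal of the Tnf promoter reporter measured by imaging after background removal, scaled to each plate median and turned into robust z-scores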
Direction: Tnf reporter robust z-score: higher = stronger Tnf promoter reporter signal after LPS
Active means: 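Called active when robust z-score is at most -1.3, matching the median of the Tlr4 knock-down control, or over 3; control wells and wells with under 50 cells never active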
Calls: active = Tnf reporter clearly lowered or raised; inactive = no clear change in Tnf reporter

For Cyyr1 (cysteine and tyrosine-rich protein 1) the deposit lists Tnf reporter robust z-score -0.36; fewer than 50 cells in well enough cells in well.
For Dnajc4 (DnaJ heat shock protein family (Hsp40) member C4), the values are Tnf reporter robust z-score 0.77; fewer than 50 cells in well enough cells in well.
With knock-down of Txlna (taxilin alpha), the screen gave Tnf reporter robust z-score 0.37; fewer than 50 cells in well enough cells in well.
Against Styk1 (serine/threonine/tyrosine kinase 1), the values are Tnf reporter robust z-score 1.58; fewer than 50 cells in well enough cells in well.
For Slc35e3, the values are fewer than 50 cells in well fewer than 50 cells per well; well left out of calls.
With knock-down of Hgd (homogentisate 1, 2-dioxygenase), the record shows Tnf reporter robust z-score -0.97; fewer than 50 cells in well enough cells in well.
For Clmn (calmin), the values are Tnf reporter robust z-score 0.7; fewer than 50 cells in well enough cells in well.
With knock-down of Rnf168 (ring finger protein 168), the screen gave fewer than 50 cells in well fewer than 50 cells per well; well left out of calls.
For Or5j3 (olfactory receptor family 5 subfamily J member 3), the values are Tnf reporter robust z-score 1.04; fewer than 50 cells in well enough cells in well.
Lgsn (lengsin, lens protein with glutamine synthetase domain) scored Tnf reporter robust z-score 0.58; fewer than 50 cells in well enough cells in well.
Knock-down of Arhgdia (Rho GDP dissociation inhibitor alpha) resulted in: fewer than 50 cells in well fewer than 50 cells per well; well left out of calls.
Against Nup62 (nucleoporin 62), the values are Tnf reporter robust z-score 0.4; fewer than 50 cells in well enough cells in well.
Silencing of Vip (vasoactive intestinal polypeptide) came out at: Tnf reporter robust z-score -1.34 (active); fewer than 50 cells in well enough cells in well.
Silencing of D7Ertd413e (DNA segment, Chr 7, ERATO Doi 413, expressed) came out at: fewer than 50 cells in well fewer than 50 cells per well; well left out of calls.
After knock-down of Vipr1 (vasoactive intestinal peptide receptor 1), the record shows Tnf reporter robust z-score 0.56; fewer than 50 cells in well enough cells in well.
Against Xiap (X-linked inhibitor of apoptosis), the values are Tnf reporter robust z-score -0.19; fewer than 50 cells in well enough cells in well.
For Prelid3a (PRELI domain containing 3A) the deposit lists Tnf reporter robust z-score -0.63; fewer than 50 cells in well enough cells in well.
Knock-down of Arpc1b (actin related protein 2/3 complex, subunit 1B) resulted in: Tnf reporter robust z-score -0.98; fewer than 50 cells in well enough cells in well.
Against Ube2o (ubiquitin-conjugating enzyme E2O), the values are fewer than 50 cells in well fewer than 50 cells per well; well left out of calls.
Knock-down of Asic5 (acid-sensing ion channel family member 5) came out at: Tnf reporter robust z-score 0.62; fewer than 50 cells in well enough cells in well.
Dll4 (delta like canonical Notch ligand 4) gave Tnf reporter robust z-score 0.83; fewer than 50 cells in well enough cells in well.

Just “Tnf reporter robust z-score”, for 3 of the entries above:
Vipr1 (vasoactive intestinal peptide receptor 1)	0.56
Xiap (X-linked inhibitor of apoptosis)	-0.19
Prelid3a (PRELI domain containing 3A)	-0.63
